Source: the supplement of paper PMC10849652
Some of the results follow. Residues, ends and D or L forms follow the SMILES beside them. *: point of attachment. Cbz = O=C(OCc1ccccc1)*

Sequences of proteins named here, by UniProt entry; tags and fusion partners are left off. A change or cut given only in a name is not applied to a line headed by its entry.
UniProt Q9NRM2: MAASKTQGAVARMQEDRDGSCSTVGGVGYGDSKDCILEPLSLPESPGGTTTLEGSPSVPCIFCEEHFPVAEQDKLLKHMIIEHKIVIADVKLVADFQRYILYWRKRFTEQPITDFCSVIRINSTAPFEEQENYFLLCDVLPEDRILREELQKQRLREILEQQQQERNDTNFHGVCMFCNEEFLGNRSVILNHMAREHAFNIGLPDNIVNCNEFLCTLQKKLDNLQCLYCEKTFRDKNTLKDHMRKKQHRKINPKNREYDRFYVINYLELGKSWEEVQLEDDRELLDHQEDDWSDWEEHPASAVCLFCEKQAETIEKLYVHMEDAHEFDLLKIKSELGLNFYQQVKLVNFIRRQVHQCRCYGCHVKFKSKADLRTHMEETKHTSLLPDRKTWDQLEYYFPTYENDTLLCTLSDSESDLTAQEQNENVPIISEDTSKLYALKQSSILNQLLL
UniProt Q6N043: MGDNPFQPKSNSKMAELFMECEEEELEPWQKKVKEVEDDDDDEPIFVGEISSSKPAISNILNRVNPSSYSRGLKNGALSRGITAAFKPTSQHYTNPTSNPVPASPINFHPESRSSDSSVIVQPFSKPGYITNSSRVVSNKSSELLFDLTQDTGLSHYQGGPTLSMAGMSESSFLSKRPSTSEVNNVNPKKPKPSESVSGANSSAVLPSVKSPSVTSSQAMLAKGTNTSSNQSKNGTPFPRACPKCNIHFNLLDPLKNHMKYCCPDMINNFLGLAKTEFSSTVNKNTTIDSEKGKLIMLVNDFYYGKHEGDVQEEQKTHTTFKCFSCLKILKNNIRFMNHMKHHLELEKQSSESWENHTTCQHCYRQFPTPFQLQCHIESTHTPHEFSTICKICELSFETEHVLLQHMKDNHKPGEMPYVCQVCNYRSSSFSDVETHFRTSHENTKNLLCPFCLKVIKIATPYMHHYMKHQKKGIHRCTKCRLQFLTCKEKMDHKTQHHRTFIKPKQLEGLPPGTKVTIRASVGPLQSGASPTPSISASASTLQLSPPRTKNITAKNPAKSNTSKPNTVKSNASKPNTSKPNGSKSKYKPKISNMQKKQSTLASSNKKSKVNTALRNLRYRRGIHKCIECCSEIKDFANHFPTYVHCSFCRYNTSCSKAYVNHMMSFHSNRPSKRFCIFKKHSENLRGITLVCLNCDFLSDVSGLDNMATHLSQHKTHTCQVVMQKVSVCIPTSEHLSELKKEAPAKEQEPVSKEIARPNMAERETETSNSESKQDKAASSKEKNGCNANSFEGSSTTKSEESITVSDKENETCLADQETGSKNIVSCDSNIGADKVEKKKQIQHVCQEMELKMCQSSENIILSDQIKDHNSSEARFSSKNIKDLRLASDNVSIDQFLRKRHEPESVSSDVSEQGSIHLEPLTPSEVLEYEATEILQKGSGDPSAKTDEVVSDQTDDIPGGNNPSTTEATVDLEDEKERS
UniProt A6NFI3: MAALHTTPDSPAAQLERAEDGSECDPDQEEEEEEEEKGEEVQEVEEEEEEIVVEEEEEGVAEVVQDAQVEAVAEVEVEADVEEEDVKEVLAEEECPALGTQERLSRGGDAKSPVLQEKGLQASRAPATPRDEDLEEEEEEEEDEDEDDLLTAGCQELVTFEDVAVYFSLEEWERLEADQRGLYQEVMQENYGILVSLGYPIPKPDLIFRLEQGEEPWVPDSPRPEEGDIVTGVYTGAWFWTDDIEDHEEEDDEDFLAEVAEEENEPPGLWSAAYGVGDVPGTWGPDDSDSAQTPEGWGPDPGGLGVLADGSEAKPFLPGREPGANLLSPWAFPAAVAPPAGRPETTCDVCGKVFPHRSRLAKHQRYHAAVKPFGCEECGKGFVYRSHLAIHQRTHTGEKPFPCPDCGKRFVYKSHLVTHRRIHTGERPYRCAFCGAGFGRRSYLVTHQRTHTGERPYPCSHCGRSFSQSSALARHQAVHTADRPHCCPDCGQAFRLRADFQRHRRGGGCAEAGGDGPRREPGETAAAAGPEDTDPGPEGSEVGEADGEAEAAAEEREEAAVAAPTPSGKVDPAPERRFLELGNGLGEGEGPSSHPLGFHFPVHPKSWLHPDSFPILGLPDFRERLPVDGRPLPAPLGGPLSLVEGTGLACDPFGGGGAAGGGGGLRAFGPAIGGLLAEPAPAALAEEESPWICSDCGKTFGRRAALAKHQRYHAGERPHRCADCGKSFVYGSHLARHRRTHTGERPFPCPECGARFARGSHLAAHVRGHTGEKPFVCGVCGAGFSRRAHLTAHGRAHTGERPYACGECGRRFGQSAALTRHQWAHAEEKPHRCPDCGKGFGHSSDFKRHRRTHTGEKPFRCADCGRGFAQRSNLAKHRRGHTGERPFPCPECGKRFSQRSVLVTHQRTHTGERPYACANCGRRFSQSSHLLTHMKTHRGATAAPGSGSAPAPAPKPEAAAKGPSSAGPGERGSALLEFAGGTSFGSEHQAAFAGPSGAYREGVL

target: ZNF277 (UniProt Q9NRM2); test: log2 fold change, soluble protein after heating vs DMSO (PISA); higher = thermal stabilisation; K562 cells, 10 uM, 30 min; active = over 0.2 and 3.5 SD of the protein, either way, in both replicates (recomputed)
How it was run: (§1)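 Aliquots of K562 cells (2×10^6 cells/mL) treated with 10 μM compound for 30 min were heated for 3 min over 48°C-58°C. After pooling and extraction in PBS with 0.5% NP-40 at 4°C, soluble protein from a 21,000xg, 90 min spin was quantified by TMTpro 16plex LC-MS/MS with channel sums equalised. Thermal stability is expressed against control samples, from duplicates, as a log2 fold change.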

log2 fold change, inactive:
O=C(O)c1ccc2c(c1)nc(Nc1cccc(Cl)c1)c1ccncc12 [silmitasertib] 0.105
O=C1NC(=NCc2cccs2)S/C1=C\c1ccc2ncccc2c1 0.019
COc1cccc2cc(-c3nc([C@H]4CC[C@H](C(=O)O)CC4)n4ncnc(N)c34)[nH]c12 -0.24
CC(C)(C)Cn1c(N)nc2ccc(-c3[nH]c(C(C)(C)C)nc3-c3ccc(F)cc3)nc21 [ralimetinib] 0.116
Cc1ccc(C(=O)N(CCCN)[C@@H](c2nc3cc(Cl)ccc3c(=O)n2Cc2ccccc2)C(C)C)cc1 [ispinesib] -0.27
O=C1NC(=O)/C(=C\c2ccc3nccnc3c2)S1 -0.108
Cc1ncc(-c2ccnc(Nc3ccc(S(C)(=O)=O)cc3)n2)n1C(C)C 0.017
FC(F)(F)c1ccc(/C=C/c2nc(COc3ccc(CCCCn4ccnn4)cc3)co2)cc1 [mubritinib] 0.192
NC(=O)c1cnc(N[C@@H]2CCCC[C@@H]2N)nc1Nc1cccc(-n2nccn2)c1 0.067
Cc1ccc(NC(=O)c2ccc(CN3CC[C@H](N(C)C)C3)c(C(F)(F)F)c2)cc1Nc1nccc(-c2cncnc2)n1 [bafetinib] 0.246
CO[C@H]1C[C@@H]2CC[C@@H](C)[C@@](O)(O2)C(=O)C(=O)N2CCCC[C@H]2C(=O)O[C@H]([C@H](C)C[C@@H]2CC[C@H](n3cnnn3)[C@H](OC)C2)CC(=O)[C@H](C)/C=C(\C)[C@@H](O)[C@@H](OC)C(=O)[C@H](C)C[C@H](C)/C=C/C=C/C=C/1C [zotarolimus] -0.084
C[C@@H](N)c1ccc(C(=O)Nc2ccnc3[nH]ccc23)cc1 0.315
Cc1nc(Nc2n[nH]c3c2CN(C(=O)N[C@H](CN(C)C)c2ccccc2)C3(C)C)c2sccc2n1 0.231
C/C(=N\NC(=O)c1cccc(S(=O)(=O)N2CCOCC2)c1)c1cc(Cl)ccc1O -0.031
NC1(c2ccc(-c3nc4ccn5c(=O)[nH]nc5c4cc3-c3ccccc3)cc2)CCC1 0.107
CCN(CCCOc1ccc2c(Nc3cc(CC(=O)Nc4cccc(F)c4)[nH]n3)ncnc2c1)CCOP(=O)(O)O [barasertib] 0.026
Cc1cn(-c2cc(NC(=O)c3ccc(C)c(Nc4nccc(-c5cccnc5)n4)c3)cc(C(F)(F)F)c2)cn1 [nilotinib] -0.207
COc1cc(Nc2ncc3c(n2)-c2ccc(Cl)cc2C(c2c(F)cccc2OC)=NC3)ccc1C(=O)O [alisertib] 0.028
COc1cc2ncnc(Nc3ccc(F)c(Cl)c3)c2cc1OCCCN1CCOCC1 [gefitinib] -0.053

target: ZNF280D (UniProt Q6N043); test: as above
How it was run: as §1

log2 fold change, inactive:
CC[C@H](C)n1cc(C)c2c(C(=O)NCc3c(C)cc(C)[nH]c3=O)cc(-c3ccc(N4CCNCC4)nc3)cc21 0.085
Cc1ncc(-c2ccnc(Nc3ccc(S(C)(=O)=O)cc3)n2)n1C(C)C -0.055
Cc1nc(Nc2n[nH]c3c2CN(C(=O)N[C@H](CN(C)C)c2ccccc2)C3(C)C)c2sccc2n1 0.071
Cc1cn(-c2cc(NC(=O)c3ccc(C)c(Nc4nccc(-c5cccnc5)n4)c3)cc(C(F)(F)F)c2)cn1 [nilotinib] -0.167
COc1cc2ncnc(Nc3ccc(F)c(Cl)c3)c2cc1OCCCN1CCOCC1 [gefitinib] -0.002

target: ZNF316 (UniProt A6NFI3); test: as above
How it was run: as §1

log2 fold change, inactive:
C=CC(=O)N1CCC[C@@H](n2nc(-c3ccc(Oc4ccccc4)cc3)c3c(N)ncnc32)C1 [ibrutinib] -0.052
COc1cc(C(=O)O)ccc1NC(=O)[C@@H]1N[C@@H](CC(C)(C)C)[C@](C#N)(c2ccc(Cl)cc2F)[C@H]1c1cccc(Cl)c1F [idasanutlin] 0.181
CCCc1cc(C)[nH]c(=O)c1CNC(=O)c1cc(-c2ccnc(N3CCN(C)CC3)c2)cc2c1cnn2C(C)C 0.192
Cn1cc(-c2ccc3nnc(C(F)(F)c4ccc5ncccc5c4)n3n2)cn1 -0.041
Cn1cc(-c2ccc3c(c2)CCN3C(=O)Cc2cccc(C(F)(F)F)c2)c2c(N)ncnc21 -0.014
O=C1c2ccccc2-c2n[nH]c3cccc1c23 -0.588
Oc1cc(-c2nc(-c3ccccc3)[nH]c2-c2ccncc2)ccc1Cl -0.195
Cc1ccc(NC(=O)c2cccc(N(C)C)c2)cc1NC(=O)c1ccc(O)cc1 -0.062
CC(C)C[C@@H](C=O)NC(=O)[C@H](CC(C)C)NC(=O)[C@H](CC(C)C)NC(=O)OCc1ccccc1 (Cbz-Leu-Leu-Leu-aldehyde) -0.071
CC(=O)c1cnc2ccc(-c3cc(Cl)c(O)c(Cl)c3)nc2c1N[C@H]1CC[C@H](CN(C)C)CC1 -0.181
O=C(O)c1ccc2c(c1)nc(Nc1cccc(Cl)c1)c1ccncc12 [silmitasertib] 0.123
O=C1NC(=NCc2cccs2)S/C1=C\c1ccc2ncccc2c1 0.108
COc1cccc2cc(-c3nc([C@H]4CC[C@H](C(=O)O)CC4)n4ncnc(N)c34)[nH]c12 -0.041
CC(C)(C)Cn1c(N)nc2ccc(-c3[nH]c(C(C)(C)C)nc3-c3ccc(F)cc3)nc21 [ralimetinib] 0.051
Cc1ccc(C(=O)N(CCCN)[C@@H](c2nc3cc(Cl)ccc3c(=O)n2Cc2ccccc2)C(C)C)cc1 [ispinesib] -0.145
O=C1NC(=O)/C(=C\c2ccc3nccnc3c2)S1 0.198
FC(F)(F)c1ccc(/C=C/c2nc(COc3ccc(CCCCn4ccnn4)cc3)co2)cc1 [mubritinib] -0.223
NC(=O)c1cnc(N[C@@H]2CCCC[C@@H]2N)nc1Nc1cccc(-n2nccn2)c1 0.042
Cc1ccc(NC(=O)c2ccc(CN3CC[C@H](N(C)C)C3)c(C(F)(F)F)c2)cc1Nc1nccc(-c2cncnc2)n1 [bafetinib] 0.251
CO[C@H]1C[C@@H]2CC[C@@H](C)[C@@](O)(O2)C(=O)C(=O)N2CCCC[C@H]2C(=O)O[C@H]([C@H](C)C[C@@H]2CC[C@H](n3cnnn3)[C@H](OC)C2)CC(=O)[C@H](C)/C=C(\C)[C@@H](O)[C@@H](OC)C(=O)[C@H](C)C[C@H](C)/C=C/C=C/C=C/1C [zotarolimus] -0.138
C[C@@H](N)c1ccc(C(=O)Nc2ccnc3[nH]ccc23)cc1 0.081
C/C(=N\NC(=O)c1cccc(S(=O)(=O)N2CCOCC2)c1)c1cc(Cl)ccc1O 0.042
NC1(c2ccc(-c3nc4ccn5c(=O)[nH]nc5c4cc3-c3ccccc3)cc2)CCC1 -0.089
CCN(CCCOc1ccc2c(Nc3cc(CC(=O)Nc4cccc(F)c4)[nH]n3)ncnc2c1)CCOP(=O)(O)O [barasertib] 0.066
COc1cc(Nc2ncc3c(n2)-c2ccc(Cl)cc2C(c2c(F)cccc2OC)=NC3)ccc1C(=O)O [alisertib] -0.045
